Values from PubChem BioAssay AID1224829 (NIAID, 2016)
Assay: 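Genes needed for LPS-driven NF-kappaB p65 nuclear entry in mouse macrophages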 (follow-up of hits). System: mouse RAW264.7 G9 macrophage reporter cells. Reagent: single siRNA against mouse genes, 100 nM. Time to read-out: 2 days of siRNA knock-down, then 40 min of LPS before fixing. Challenge: LPS (Salmonella minnesota R595) at 10 ng/ml. Measured: 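High-content images after 40 min LPS exposure; GFP-p65 nucleus to surrounding ring signal ratio, normalised to plate median and non-targeting control wells, expressed as z-score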. Scale: p65 translocation z-score and gene median z-score, per vendor: higher = more nuclear NF-kappaB p65 after LPS. Rule for the call: 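An siRNA is called active when the mean z-score of its two replicates is above 2 or below -2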. Calls: active = changed p65 translocation (either direction); inactive = no clear change.
The whole screen tested about 3,800 reagents; shown is an unselected part. 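Calls cover raised and lowered translocation; gene median uses one vendor's three siRNAs; qiagen siRNAs acted more weakly than ambion siRNAs.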 A number with no mark means an inactive call. Reagents against one gene are numbered here.

gene symbol	reagent no.	siRNA vendor or control pool	p65 translocation z-score, replicate mean	p65 translocation z-score, replicate 1	p65 translocation z-score, replicate 2	gene median z-score, per vendor
Ifna4 (interferon alpha 4)	1	ambion single siRNA	2.85 (active)	2.34	3.36	-3.13
Ifna4 (interferon alpha 4)	2	ambion single siRNA	-5.97 (active)	-8.2	-3.74	-3.13
Ifna4 (interferon alpha 4)	3	ambion single siRNA	-3.91 (active)	-5.3	-2.51	-3.13
Ifna4 (interferon alpha 4)	4	qiagen single siRNA	0.268	1.39	-0.858	-0.858
Ifna4 (interferon alpha 4)	5	qiagen single siRNA	-0.715	-0.0547	-1.38	-0.858
Ifna4 (interferon alpha 4)	6	qiagen single siRNA	-1.75	-1.75		-0.858
Rpl5 (ribosomal protein L5)	1	ambion single siRNA	-4.55 (active)	-5.14	-3.96	-4.55
Rpl5 (ribosomal protein L5)	2	ambion single siRNA	-2.28 (active)	-1.7	-2.86	-4.55
Rpl5 (ribosomal protein L5)	3	ambion single siRNA	-5.84 (active)	-6.05	-5.63	-4.55
Rpl5 (ribosomal protein L5)	4	qiagen single siRNA	-4.61 (active)	-2.68	-6.55	-3.24
Rpl5 (ribosomal protein L5)	5	qiagen single siRNA	-6.18 (active)	-6.18		-3.24
Rpl5 (ribosomal protein L5)	6	qiagen single siRNA	-1.94	-0.637	-3.24	-3.24
Psors1c2 (psoriasis susceptibility 1 candidate 2 (human))	1	ambion single siRNA	0.304	0.491	0.118	-1.66
Psors1c2 (psoriasis susceptibility 1 candidate 2 (human))	2	ambion single siRNA	-2.23 (active)	-1.36	-3.1	-1.66
Psors1c2 (psoriasis susceptibility 1 candidate 2 (human))	3	ambion single siRNA	-2.45 (active)	-1.96	-2.95	-1.66
Psors1c2 (psoriasis susceptibility 1 candidate 2 (human))	4	qiagen single siRNA	1.55	0.632	2.48	-0.736
Psors1c2 (psoriasis susceptibility 1 candidate 2 (human))	5	qiagen single siRNA	-0.736	-0.596	-0.875	-0.736
Psors1c2 (psoriasis susceptibility 1 candidate 2 (human))	6	qiagen single siRNA	-3.26 (active)	-2.96	-3.56	-0.736
Ube2d3 (ubiquitin-conjugating enzyme E2D 3)	1	ambion single siRNA	-1.6	-3.25	0.0587	-2.94
Ube2d3 (ubiquitin-conjugating enzyme E2D 3)	2	ambion single siRNA	-2.53 (active)	-2.94	-2.12	-2.94
Ube2d3 (ubiquitin-conjugating enzyme E2D 3)	3	ambion single siRNA	-5.83 (active)	-5.83		-2.94
Ube2d3 (ubiquitin-conjugating enzyme E2D 3)	4	qiagen single siRNA	3.39 (active)	2.75	4.03	2.57
Ube2d3 (ubiquitin-conjugating enzyme E2D 3)	5	qiagen single siRNA	-0.315	-0.258	-0.373	2.57
Ube2d3 (ubiquitin-conjugating enzyme E2D 3)	6	qiagen single siRNA	2.59 (active)	2.38	2.8	2.57
Brs3 (bombesin-like receptor 3)	1	ambion single siRNA	1.38	1.38		-0.275
Brs3 (bombesin-like receptor 3)	2	ambion single siRNA	-0.247	0.278	-0.773	-0.275
Brs3 (bombesin-like receptor 3)	3	ambion single siRNA	-0.556	-0.275	-0.836	-0.275
Brs3 (bombesin-like receptor 3)	4	qiagen single siRNA	-0.0923	-0.553	0.368	0.435
Brs3 (bombesin-like receptor 3)	5	qiagen single siRNA	0.236	-0.029	0.502	0.435
Brs3 (bombesin-like receptor 3)	6	qiagen single siRNA	1.09	0.679	1.5	0.435
Rnh1 (ribonuclease/angiogenin inhibitor 1)	1	ambion single siRNA	0.768	0.885	0.651	-1.95
Rnh1 (ribonuclease/angiogenin inhibitor 1)	2	ambion single siRNA	-2.4 (active)	-2.49	-2.3	-1.95
Rnh1 (ribonuclease/angiogenin inhibitor 1)	3	ambion single siRNA	-1.95	-1.81	-2.09	-1.95
Rnh1 (ribonuclease/angiogenin inhibitor 1)	4	qiagen single siRNA	3.29 (active)	3.23	3.35	1.41
Rnh1 (ribonuclease/angiogenin inhibitor 1)	5	qiagen single siRNA	1.41	1.74	1.08	1.41
Rnh1 (ribonuclease/angiogenin inhibitor 1)	6	qiagen single siRNA	-1.18	0.333	-2.7	1.41
Svil (supervillin)	1	ambion single siRNA	0.278	-0.632	1.19	-0.61
Svil (supervillin)	2	ambion single siRNA	-0.73	-0.587	-0.872	-0.61
Svil (supervillin)	3	ambion single siRNA	-0.8	2.16	-3.76	-0.61
Svil (supervillin)	4	qiagen single siRNA	0.491	1.18	-0.196	0.267
Svil (supervillin)	5	qiagen single siRNA	0.267	0.267		0.267
Svil (supervillin)	6	qiagen single siRNA	-0.0288	-1.6	1.54	0.267
Tacc1 (transforming, acidic coiled-coil containing protein 1)	1	ambion single siRNA	-2.05 (active)	-2.61	-1.49	-1.13
Tacc1 (transforming, acidic coiled-coil containing protein 1)	2	ambion single siRNA	2.4 (active)	3.45	1.36	-1.13
Tacc1 (transforming, acidic coiled-coil containing protein 1)	3	ambion single siRNA	-1.24	-1.72	-0.765	-1.13
Tacc1 (transforming, acidic coiled-coil containing protein 1)	4	qiagen single siRNA	1.62	0.605	2.63	-0.00907
Tacc1 (transforming, acidic coiled-coil containing protein 1)	5	qiagen single siRNA	-0.613	0.0334	-1.26	-0.00907
Tacc1 (transforming, acidic coiled-coil containing protein 1)	6	qiagen single siRNA	-0.918	-0.0516	-1.78	-0.00907
Slc5a6	1	ambion single siRNA	-1.26	-1.9	-0.627	-3.66
Slc5a6	2	ambion single siRNA	-3.66 (active)	-4.69	-2.64	-3.66
Slc5a6	3	ambion single siRNA	-6.81 (active)	-7.01	-6.6	-3.66
Slc5a6	4	qiagen single siRNA	2.33 (active)	2.33		1.68
Slc5a6	5	qiagen single siRNA	1.65	1.76	1.54	1.68
Slc5a6	6	qiagen single siRNA	-0.54	-2.76	1.68	1.68
Psma3 (proteasome subunit alpha 3)	1	ambion single siRNA	2.78 (active)	3.78	1.77	-1.78
Psma3 (proteasome subunit alpha 3)	2	ambion single siRNA	-1.78	-3.23	-0.317	-1.78
Psma3 (proteasome subunit alpha 3)	3	ambion single siRNA	-4.05 (active)	-4.7	-3.4	-1.78
Neurod1 (neurogenic differentiation 1)	1	ambion single siRNA	-2.42 (active)	-2.42		-0.0444
Neurod1 (neurogenic differentiation 1)	2	ambion single siRNA	1.93	2.81	1.05	-0.0444
Neurod1 (neurogenic differentiation 1)	3	ambion single siRNA	-1.14	-1.14		-0.0444
Neurod1 (neurogenic differentiation 1)	4	qiagen single siRNA	1.15	1.5	0.799	-1.54
Neurod1 (neurogenic differentiation 1)	5	qiagen single siRNA	-1.54	-1.16	-1.93	-1.54
Neurod1 (neurogenic differentiation 1)	6	qiagen single siRNA	-7.44 (active)	-5.08	-9.8	-1.54
Or12e9 (olfactory receptor family 12 subfamily E member 9)	1	ambion single siRNA	-2.99 (active)	-3.74	-2.25	-1.13
Or12e9 (olfactory receptor family 12 subfamily E member 9)	2	ambion single siRNA	3.54 (active)	4.03	3.06	-1.13
Or12e9 (olfactory receptor family 12 subfamily E member 9)	3	ambion single siRNA	-1.13	-0.949	-1.31	-1.13
Or12e9 (olfactory receptor family 12 subfamily E member 9)	4	qiagen single siRNA	1.39	-0.189	2.97	-0.191
Or12e9 (olfactory receptor family 12 subfamily E member 9)	5	qiagen single siRNA	0.507	-0.192	1.21	-0.191
Or12e9 (olfactory receptor family 12 subfamily E member 9)	6	qiagen single siRNA	-1.8	-1.58	-2.02	-0.191

Single entries from above:
Entry of Slc5a6 #3, siRNA vendor or control pool ambion single siRNA in “p65 translocation z-score, replicate mean”: -6.81 (active)
Or12e9 (olfactory receptor family 12 subfamily E member 9) #6, siRNA vendor or control pool qiagen single siRNA, p65 translocation z-score, replicate 1 → -1.58
Rnh1 (ribonuclease/angiogenin inhibitor 1) #1, siRNA vendor or control pool ambion single siRNA, p65 translocation z-score, replicate 2: 0.651
Under “p65 translocation z-score, replicate 2”, Ifna4 (interferon alpha 4) #3, siRNA vendor or control pool ambion single siRNA is entered as -2.51 (active)
Entry for Psors1c2 (psoriasis susceptibility 1 candidate 2 (human)) #4, siRNA vendor or control pool qiagen single siRNA under “p65 translocation z-score, replicate mean”: 1.55
